According to paper PMC6222128:

Key:
[1] = biological target: T1, Myc-UPF1 (wild type) (UniProt Q92900); assay: co-IP; HEK293T transfected with Strep-tagged capsid and Myc-UPF1 (wild type or mutant), harvested at 48 hpt; immunoprecipitation with anti-Myc tag; blot for capsid
T1 sequence: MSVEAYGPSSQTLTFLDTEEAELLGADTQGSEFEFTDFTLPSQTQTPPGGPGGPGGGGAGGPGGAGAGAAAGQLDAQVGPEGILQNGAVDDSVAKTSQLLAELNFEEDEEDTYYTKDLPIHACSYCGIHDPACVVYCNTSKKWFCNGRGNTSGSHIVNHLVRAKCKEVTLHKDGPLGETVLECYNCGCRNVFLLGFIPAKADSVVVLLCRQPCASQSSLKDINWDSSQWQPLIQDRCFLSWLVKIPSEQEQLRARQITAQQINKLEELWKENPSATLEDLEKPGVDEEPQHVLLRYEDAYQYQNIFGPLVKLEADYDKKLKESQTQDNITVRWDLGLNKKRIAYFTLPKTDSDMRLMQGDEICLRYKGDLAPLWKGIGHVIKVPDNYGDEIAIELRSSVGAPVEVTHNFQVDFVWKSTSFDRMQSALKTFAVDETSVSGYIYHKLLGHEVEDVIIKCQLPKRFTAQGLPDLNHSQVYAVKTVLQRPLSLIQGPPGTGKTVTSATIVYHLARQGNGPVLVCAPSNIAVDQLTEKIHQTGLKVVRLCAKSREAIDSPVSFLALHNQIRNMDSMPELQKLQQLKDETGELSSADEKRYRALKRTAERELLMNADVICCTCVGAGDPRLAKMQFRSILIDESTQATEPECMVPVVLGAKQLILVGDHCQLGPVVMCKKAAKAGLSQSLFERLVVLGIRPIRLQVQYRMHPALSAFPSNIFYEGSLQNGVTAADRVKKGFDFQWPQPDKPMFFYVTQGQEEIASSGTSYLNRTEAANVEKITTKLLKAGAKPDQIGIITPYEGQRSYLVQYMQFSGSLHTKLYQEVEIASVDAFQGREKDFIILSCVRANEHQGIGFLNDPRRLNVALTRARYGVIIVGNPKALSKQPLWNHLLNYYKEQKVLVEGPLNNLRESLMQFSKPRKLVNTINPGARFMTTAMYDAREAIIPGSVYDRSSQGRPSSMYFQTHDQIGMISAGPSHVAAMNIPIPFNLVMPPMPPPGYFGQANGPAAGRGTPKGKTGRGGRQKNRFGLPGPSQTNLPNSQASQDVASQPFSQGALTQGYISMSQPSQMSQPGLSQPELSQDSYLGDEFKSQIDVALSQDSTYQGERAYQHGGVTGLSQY

[2] = biological target: T2, Myc-UPF1-C126S (RNA-binding mutant) (UniProt Q92900); assay: as above
T2 sequence: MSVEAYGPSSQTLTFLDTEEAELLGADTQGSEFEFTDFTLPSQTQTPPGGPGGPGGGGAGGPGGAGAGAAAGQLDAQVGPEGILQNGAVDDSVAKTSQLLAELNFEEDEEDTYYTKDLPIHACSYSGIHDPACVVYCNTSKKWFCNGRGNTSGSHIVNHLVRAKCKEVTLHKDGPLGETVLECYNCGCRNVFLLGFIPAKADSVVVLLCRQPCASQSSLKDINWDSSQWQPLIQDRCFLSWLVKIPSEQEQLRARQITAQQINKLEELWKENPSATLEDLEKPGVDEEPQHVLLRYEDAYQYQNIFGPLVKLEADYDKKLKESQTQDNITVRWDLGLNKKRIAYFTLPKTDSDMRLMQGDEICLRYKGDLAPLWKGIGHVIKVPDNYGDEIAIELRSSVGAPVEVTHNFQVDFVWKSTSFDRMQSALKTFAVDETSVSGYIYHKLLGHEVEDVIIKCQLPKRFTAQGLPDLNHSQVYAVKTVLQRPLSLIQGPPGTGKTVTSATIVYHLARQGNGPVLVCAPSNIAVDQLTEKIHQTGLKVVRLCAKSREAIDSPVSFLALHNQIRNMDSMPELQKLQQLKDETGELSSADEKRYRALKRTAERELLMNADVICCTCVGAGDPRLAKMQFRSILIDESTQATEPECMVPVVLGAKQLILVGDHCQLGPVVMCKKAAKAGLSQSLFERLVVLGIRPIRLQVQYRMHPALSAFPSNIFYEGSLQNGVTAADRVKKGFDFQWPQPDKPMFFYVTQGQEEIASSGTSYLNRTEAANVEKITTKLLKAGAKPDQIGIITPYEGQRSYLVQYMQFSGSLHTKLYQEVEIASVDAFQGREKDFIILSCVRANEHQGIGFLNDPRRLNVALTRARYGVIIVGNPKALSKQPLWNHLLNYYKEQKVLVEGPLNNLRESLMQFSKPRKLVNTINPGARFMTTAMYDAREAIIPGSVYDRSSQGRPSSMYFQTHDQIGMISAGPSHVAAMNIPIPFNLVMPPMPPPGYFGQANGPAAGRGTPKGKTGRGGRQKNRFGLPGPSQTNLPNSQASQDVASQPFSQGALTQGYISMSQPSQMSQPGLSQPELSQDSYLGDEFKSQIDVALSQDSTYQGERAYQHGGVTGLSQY

[3] = biological target: T3, Myc-UPF1-G495R/G497E (ATPase/helicase mutant) (UniProt Q92900); assay: as above
T3 sequence: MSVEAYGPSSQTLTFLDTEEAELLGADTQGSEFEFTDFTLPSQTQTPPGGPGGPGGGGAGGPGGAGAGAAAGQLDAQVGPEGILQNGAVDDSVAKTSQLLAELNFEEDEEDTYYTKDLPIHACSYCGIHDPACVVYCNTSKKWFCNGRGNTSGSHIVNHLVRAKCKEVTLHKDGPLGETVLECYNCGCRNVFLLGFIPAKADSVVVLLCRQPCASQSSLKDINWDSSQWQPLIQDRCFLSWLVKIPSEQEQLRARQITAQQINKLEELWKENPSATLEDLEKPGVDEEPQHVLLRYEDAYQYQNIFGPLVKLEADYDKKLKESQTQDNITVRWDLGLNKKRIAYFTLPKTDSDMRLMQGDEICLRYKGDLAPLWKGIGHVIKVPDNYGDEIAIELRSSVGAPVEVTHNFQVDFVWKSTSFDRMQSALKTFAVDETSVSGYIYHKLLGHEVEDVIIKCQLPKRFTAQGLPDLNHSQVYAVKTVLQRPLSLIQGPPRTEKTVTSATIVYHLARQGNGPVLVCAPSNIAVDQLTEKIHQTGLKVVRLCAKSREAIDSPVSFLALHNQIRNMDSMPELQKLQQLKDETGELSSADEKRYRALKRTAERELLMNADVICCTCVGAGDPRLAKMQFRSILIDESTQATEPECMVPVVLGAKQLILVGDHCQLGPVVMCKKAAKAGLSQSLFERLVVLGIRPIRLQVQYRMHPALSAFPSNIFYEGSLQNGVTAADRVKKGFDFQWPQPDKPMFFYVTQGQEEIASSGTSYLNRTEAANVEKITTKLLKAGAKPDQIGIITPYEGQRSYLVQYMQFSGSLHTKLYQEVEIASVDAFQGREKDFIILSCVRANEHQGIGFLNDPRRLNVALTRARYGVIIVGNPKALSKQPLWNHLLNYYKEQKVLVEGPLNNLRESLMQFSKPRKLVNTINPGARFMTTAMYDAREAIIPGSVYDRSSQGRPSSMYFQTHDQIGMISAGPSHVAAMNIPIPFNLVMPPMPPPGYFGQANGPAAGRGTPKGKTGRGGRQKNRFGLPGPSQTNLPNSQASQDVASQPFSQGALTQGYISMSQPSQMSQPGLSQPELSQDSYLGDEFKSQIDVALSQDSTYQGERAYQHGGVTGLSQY

[4] = biological target: Flag-tagged ZIKV capsid (H/PF/2013, Asian lineage) (Zika virus (H/PF/2013, Asian lineage)); assay: co-IP; HEK293T transfected with vector or Flag-tagged capsid, harvested at 48 hpt; RIPA or IP lysis buffer; Flag M2 agarose overnight; blots for endogenous UPF3B or UPF1

French Polynesian ZIKV capsid (H/PF/2013), C-terminal 2xStrep II tag
binding [1]: binds
binding [2]: binds
binding [3]: binds

B1: up-frameshift protein 1 (UPF1), endogenous (protein, UniProt Q92900 1-1129)
chain: MSVEAYGPSSQTLTFLDTEEAELLGADTQGSEFEFTDFTLPSQTQTPPGGPGGPGGGGAGGPGGAGAGAAAGQLDAQVGPEGILQNGAVDDSVAKTSQLLAELNFEEDEEDTYYTKDLPIHACSYCGIHDPACVVYCNTSKKWFCNGRGNTSGSHIVNHLVRAKCKEVTLHKDGPLGETVLECYNCGCRNVFLLGFIPAKADSVVVLLCRQPCASQSSLKDINWDSSQWQPLIQDRCFLSWLVKIPSEQEQLRARQITAQQINKLEELWKENPSATLEDLEKPGVDEEPQHVLLRYEDAYQYQNIFGPLVKLEADYDKKLKESQTQDNITVRWDLGLNKKRIAYFTLPKTDSGNEDLVIIWLRDMRLMQGDEICLRYKGDLAPLWKGIGHVIKVPDNYGDEIAIELRSSVGAPVEVTHNFQVDFVWKSTSFDRMQSALKTFAVDETSVSGYIYHKLLGHEVEDVIIKCQLPKRFTAQGLPDLNHSQVYAVKTVLQRPLSLIQGPPGTGKTVTSATIVYHLARQGNGPVLVCAPSNIAVDQLTEKIHQTGLKVVRLCAKSREAIDSPVSFLALHNQIRNMDSMPELQKLQQLKDETGELSSADEKRYRALKRTAERELLMNADVICCTCVGAGDPRLAKMQFRSILIDESTQATEPECMVPVVLGAKQLILVGDHCQLGPVVMCKKAAKAGLSQSLFERLVVLGIRPIRLQVQYRMHPALSAFPSNIFYEGSLQNGVTAADRVKKGFDFQWPQPDKPMFFYVTQGQEEIASSGTSYLNRTEAANVEKITTKLLKAGAKPDQIGIITPYEGQRSYLVQYMQFSGSLHTKLYQEVEIASVDAFQGREKDFIILSCVRANEHQGIGFLNDPRRLNVALTRARYGVIIVGNPKALSKQPLWNHLLNYYKEQKVLVEGPLNNLRESLMQFSKPRKLVNTINPGARFMTTAMYDAREAIIPGSVYDRSSQGRPSSMYFQTHDQIGMISAGPSHVAAMNIPIPFNLVMPPMPPPGYFGQANGPAAGRGTPKGKTGRGGRQKNRFGLPGPSQTNLPNSQASQDVASQPFSQGALTQGYISMSQPSQMSQPGLSQPELSQDSYLGDEFKSQIDVALSQDSTYQGERAYQHGGVTGLSQY
binding [4]: binds

B2: UPF3B, endogenous (protein, UniProt Q9BZI7 1-483)
chain: MKEEKEHRPKEKRVTLLTPAGATGSGGGTSGDSSKGEDKQDRNKEKKEALSKVVIRRLPPTLTKEQLQEHLQPMPEHDYFEFFSNDTSLYPHMYARAYINFKNQEDIILFRDRFDGYVFLDNKGQEYPAIVEFAPFQKAAKKKTKKRDTKVGTIDDDPEYRKFLESYATDNEKMTSTPETLLEEIEAKNRELIAKKTTPLLSFLKNKQRMREEKREERRRREIERKRQREEERRKWKEEEKRKRKDIEKLKKIDRIPERDKLKDEPKIKVHRFLLQAVNQKNLLKKPEKGDEKELDKREKAKKLDKENLSDERASGQSCTLPKRSDSELKDEKPKRPEDESGRDYREREREYERDQERILRERERLKRQEEERRRQKERYEKEKTFKRKEEEMKKEKDTLRDKGKKAESTESIGSSEKTEKKEEVVKRDRIRNKDRPAMQLYQPGARSRNRLCPPDDSTKSGDSAAERKQESGISHRKEGGEE
binding [4]: binds

Results are given in words; binding and its absence hold for the method and conditions named. In cells and extracts the contact can be indirect. A result given as binding can be weak or reduced; the word gives no strength. For some assays here: Tags and fused reporters may be left off the sequences shown.
